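Enzyme assay of tryptophanyl-tRNA synthetase; the read-out is not stated. Target: Tryptophan-tRNA ligase, Mycobacterium tuberculosis (UniProt P9WFT3). Tested at 10 µM. Higher most likely means stronger inhibition; the record gives no direction and few retests gave an IC50. Size under these conditions: about 65,000 compounds, about 64 of them at 50% or above in at least one test.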

Protein sequences, listed by entry. Tags and fused reporters are not part of them.
UniProt P9WFT3, whole entry: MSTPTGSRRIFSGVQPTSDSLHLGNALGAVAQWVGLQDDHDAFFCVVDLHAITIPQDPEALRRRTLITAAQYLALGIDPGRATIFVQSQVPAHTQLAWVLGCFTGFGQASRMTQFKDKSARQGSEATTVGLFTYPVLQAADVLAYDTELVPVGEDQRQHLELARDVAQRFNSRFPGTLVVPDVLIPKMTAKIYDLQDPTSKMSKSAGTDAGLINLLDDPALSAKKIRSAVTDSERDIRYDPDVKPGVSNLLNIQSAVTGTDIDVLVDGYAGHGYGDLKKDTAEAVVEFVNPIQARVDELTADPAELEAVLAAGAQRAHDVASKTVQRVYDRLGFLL

Results are given as percent effect. How 0% and 100% were set is not recorded. Most values in the screen are low, and negative values occur. This is an unselected part of the compounds tested.

compound | percent effect
CN1CCOC(CNCc2ccc(OCc3ccccn3)cc2)C1 (centres unmarked) | -9.508
CC(Nc1ccc(Br)cc1)c1nc(C2CC2)no1 (centres unmarked) | -1.961
COc1ccc(CCn2cnnc2[S+](C)[O-])cc1 (centres unmarked) | 1.026
Cc1noc(C)c1CN1CCO[C@H]2CN(Cc3cccnc3)C[C@H]21 | 1.926
Cn1ccnc1CN1CCCN(C(=O)COC2CCCCC2)CC1 | 2.939
Cc1nnc(Nc2cccc(C3CCN(CCO)CC3)n2)s1 | 0.8811
c1cc(CN2CCCn3nnc(COCC4CC4)c3C2)ccn1 | 0.9856
CN(C)C(=O)CN1CCN(C(=O)c2cnn(-c3ccccc3Cl)c2)CC1 | -7.052
O=c1[nH]nc(-c2cccs2)c2sc(N3CCOCC3)nc12 | -2.918
COC(C)(C)CC(C)NCc1nncn1C1CCCCC1 (centres unmarked) | 0.4617
CC(=O)c1cccc(OCCCC(=O)N(C)C2CCN(C)CC2)c1 | 2.519
COc1ncccc1NC(=O)N1CCC(CNC(C)=O)CC1 | -1.066
CNc1nc(C(=O)NCc2cccnc2N(C)C2CCCCC2)cs1 | 7.02
CCn1c(C)nnc1SCCNC(=O)c1sc(C(C)C)nc1C | 0.08333
Cc1cccnc1NC(=O)C(C)Cn1nc(C(F)(F)F)cc1C (centres unmarked) | -2.01
CCN(CC)CC1CN(Cc2nccs2)Cc2nccn2C1 (centres unmarked) | -1.297
O=C(c1cn(-c2cc(N3CCOCC3)ncn2)cn1)N1CCSCC1 | -1.924
CCNC(=O)N(CCCO)C1CCCc2ccccc21 (centres unmarked) | 2.824
COCCCN1CC2(CCCN(c3ncc(Cl)cc3F)C2)CCC1=O (centres unmarked) | 6.735
CSCc1ccc(N2CCN(c3ccc(Cl)cn3)CC2)nc1 | -1.708
Cc1cc(C(=O)N2CCC3(CC(=O)NC3=O)C2)c(-c2ccccc2)o1 (centres unmarked) | 1.814
CC(C)CCn1c(=O)nc2n1C(=O)N(c1ccc(F)cc1)C2 | 2.436
CN1CCC2(CC1)CN(C(=O)c1cnccn1)Cc1ccccc12 | 1.451
CCn1cnnc1CCNCc1c[nH]nc1-c1ccc(F)cc1 | 1.365
O=C1[C@@H]2CCN(Cc3ccoc3)C[C@@H]2OCCN1c1ccccc1 | -0.7049
CCOc1ncccc1NC(=O)N1CCOCC1C (centres unmarked) | -1.644
CCN1CCC(NC(=O)CN2CCc3c(ncn3C3CC3)C2)CC1 | 0.5111
CCOc1cc(CNC(C)c2ccc(F)cc2)ccn1 (centres unmarked) | -2.016
COCC1CC2(CCN(C(=O)c3cccn3C)CC2)CN1C(C)C (centres unmarked) | -5.816
CS(=O)(=O)NCC1CCCN(C(=O)Nc2ccccc2Cl)C1 (centres unmarked) | -3.072
CC(C)Nc1nnc(SCc2nnc(C(C)(C)C)o2)s1 | -7.216
Cc1ccc(CN2CCN(Cc3ccncc3)[C@@H]3CS(=O)(=O)C[C@@H]32)cc1 | -2.916
COc1ccc(-n2nc(C)c(C(C)=O)c2C)cc1C(N)=O | -4.686
CCCSc1nc(O)c(CC)c(=O)n1-c1ccccc1 | 2.034
O=C(NCC1(O)CCc2ccccc21)Nc1ccc2c(c1)OCO2 (centres unmarked) | 7.65
Cc1nc(C(=O)NCCS(=O)(=O)N2CCCC2)cs1 | 9.867
Cc1nc(C(=O)N(CC2CCCO2)c2ccncc2)cs1 (centres unmarked) | -0.7776
CN1N=C(C(=O)N2CCCC(CCc3ccccc3F)C2)CCC1=O (centres unmarked) | -2.408
O=C1NCC2(CCCN(Cc3ccccc3OCCO)C2)O1 (centres unmarked) | -4.19
Cc1cccc(C(=O)N2CCC3(CC(C(=O)N(C)C(C)C)=NO3)C2)c1 (centres unmarked) | 4.299
CCCS(=O)(=O)N(C)C(=O)CCc1ccsc1 | -3.054
CCCn1nc2c(cc1=O)CN(Cc1nc(CCOC)no1)CC2 | 3.377
CCOc1ccc(N(CCC#N)C(=O)c2ccnc(SC)c2)cc1 | -2.651
Cc1cc(C)c(CNC(=O)N(C)Cc2ccoc2)c(=O)[nH]1 | 2.534
COCCCNc1c(-c2ccccc2)c(=O)c1=O | -1.357
CC(=O)c1cc(CN2CCCC2c2nc3ccc(C)cc3[nH]2)cs1 (centres unmarked) | 10.91
Cc1ccc(C(C(=O)NCc2cc(C)[nH]n2)N(C)C)cc1 (centres unmarked) | 4.027
CCN(C(C)=O)C(c1cccnc1)c1cc(C)cc(C)c1 (centres unmarked) | 14.25
CN1CC2(CCN(C(=O)c3cccc(-n4cccn4)c3)CC2)OC1=O | -0.5863
O=C1CO[C@@H]2CNC[C@H]2N1CC1CC1 | -7.604
COc1cccc(C(=O)N2CCCCC2CNC(N)=O)c1 (centres unmarked) | 0.09747
CN(C)c1cc(CNC(=O)c2cc(F)ccc2F)ccn1 | 22.97
CCN1C(=O)C2(CCOCC2)c2cc(NC(=O)c3cccn3C)ccc21 | -4.9
Cc1c(C(=O)NCC(C)C)nnn1-c1cccc2c1CCN(C(C)C)C2 | 0.7965
CC(=O)Nc1nc(C(=O)NCc2ccc(N3CCCCCC3)nc2)cs1 | -1.657
O=C1CC(c2ccsc2)c2cnn(C3CCCC3)c2N1 (centres unmarked) | 5.91
CO[C@H]1CCN(S(=O)(=O)c2cccnc2)[C@@H]2CN(CC3CC3)C[C@H]12 | -2.815
Cc1ccc(CN2CCC(n3cc(CN4CCC(O)CC4)nn3)CC2)s1 | 0.895
O=C1CC2(CCCCN2C(=O)c2ccncc2)CN1CC1CC1 (centres unmarked) | -1.99
CCC1(O)CCCN(c2nc(C(C)(C)C)nc3c2cnn3C)C1 (centres unmarked) | -2.952
CC(C)NC(=O)[C@H]1C[C@H]2NCCO[C@@H]2C1 | -4.794
CC(C)(C)CN1CCC[C@H]1c1nc(-c2cncnc2N)no1 | -5.235
Cc1cc(NC(=O)CN(C)C2CCCN(c3cccnn3)C2)on1 (centres unmarked) | 13.72
CN1CC(=O)N(c2cccc(F)c2)CC12CCN(Cc1cnn(C)c1)C2 (centres unmarked) | -0.1501
c1cnc(NC2COC3(CCN(Cc4ccoc4)CC3)C2)nc1 (centres unmarked) | 6.298
c1cnc(N2CCC(C3CCN(CCCn4cccn4)C3)CC2)nc1 (centres unmarked) | -1.445
Cc1cc(NC(=O)NCc2cccnc2OC(C)C)no1 | -2.542
CN(C)c1nc(N)nc(CSCCC(=O)Nc2ccc(F)cc2)n1 | -1.206
CNC(=O)CNC1CC2(CCN(c3ncccn3)CC2)c2ccccc21 (centres unmarked) | -5.004
CC(C)CN1C(=O)CC[C@H]2CN(C(=O)c3ncc[nH]3)CC[C@H]21 | -3.802
CN(CC(=O)Nc1ccncc1)CC1CCCN1c1cccnn1 (centres unmarked) | -5.464
O=C1NCCN1C1CCN(CCOc2ccccc2F)CC1 | 3.193
Cc1nc(CC(=O)N2CCCC2Cn2cccn2)cs1 (centres unmarked) | -3.159
FC(F)(F)Cn1cc(NCc2cscn2)cn1 | -0.5698
CCN(CC)C1(Cc2cc(-c3cccc(O)c3)on2)COC1 | -2.365
CC(C)CN(C(=O)Nc1cccc(C(=O)N(C)C)c1)C1CC1 | -2.977
CCCNCc1ncc(C)c(OC)c1C | -1.943

The first 7 entries again:

compound,percent effect
CN1CCOC(CNCc2ccc(OCc3ccccn3)cc2)C1 (centres unmarked),-9.508
CC(Nc1ccc(Br)cc1)c1nc(C2CC2)no1 (centres unmarked),-1.961
COc1ccc(CCn2cnnc2[S+](C)[O-])cc1 (centres unmarked),1.026
Cc1noc(C)c1CN1CCO[C@H]2CN(Cc3cccnc3)C[C@H]21,1.926
Cn1ccnc1CN1CCCN(C(=O)COC2CCCCC2)CC1,2.939
Cc1nnc(Nc2cccc(C3CCN(CCO)CC3)n2)s1,0.8811
c1cc(CN2CCCn3nnc(COCC4CC4)c3C2)ccn1,0.9856

Measurements from “University of Dundee, Small-Polar-MMV Screening Library” (2021), ChEMBL document CHEMBL3988442.